For one substance, binding results are on record in PMC5996888.

Sequences of proteins named here, by UniProt entry; tags and fusion partners are left off. Residues count along the entry.
UniProt P01009, residues 25-418: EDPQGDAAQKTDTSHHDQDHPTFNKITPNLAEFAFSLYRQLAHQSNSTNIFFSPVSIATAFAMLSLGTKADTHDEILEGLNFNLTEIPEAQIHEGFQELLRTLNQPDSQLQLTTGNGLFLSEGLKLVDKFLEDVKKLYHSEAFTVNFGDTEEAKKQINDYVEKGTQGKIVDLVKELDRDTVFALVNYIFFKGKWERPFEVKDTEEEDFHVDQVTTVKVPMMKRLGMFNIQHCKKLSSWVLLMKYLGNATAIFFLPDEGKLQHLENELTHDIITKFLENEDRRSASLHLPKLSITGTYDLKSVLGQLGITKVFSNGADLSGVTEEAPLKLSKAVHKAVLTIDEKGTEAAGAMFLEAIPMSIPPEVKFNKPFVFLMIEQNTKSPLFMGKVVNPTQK
UniProt P16671: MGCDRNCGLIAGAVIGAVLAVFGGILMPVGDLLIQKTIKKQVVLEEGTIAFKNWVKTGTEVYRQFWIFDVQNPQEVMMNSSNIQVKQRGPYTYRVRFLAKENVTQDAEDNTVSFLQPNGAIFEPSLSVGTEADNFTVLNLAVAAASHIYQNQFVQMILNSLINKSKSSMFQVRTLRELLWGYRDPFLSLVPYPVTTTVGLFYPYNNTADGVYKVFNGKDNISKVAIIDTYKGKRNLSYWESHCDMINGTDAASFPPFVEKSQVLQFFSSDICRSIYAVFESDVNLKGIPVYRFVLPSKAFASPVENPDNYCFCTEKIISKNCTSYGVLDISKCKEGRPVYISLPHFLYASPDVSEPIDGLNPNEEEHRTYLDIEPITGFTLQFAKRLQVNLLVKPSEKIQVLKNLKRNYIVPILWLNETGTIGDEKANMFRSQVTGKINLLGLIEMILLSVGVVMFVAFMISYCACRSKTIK

These are yes or no findings as the source states them, for the method shown. Binding seen in cells or lysates may run through a third protein. Some results given as binding are weak or reduced against the parent protein; the word gives no strength.

This test has as its target alpha-1 antitrypsin preparation Prolastin (AAT-P) (human) (UniProt P01009). Put plainly: co-IP; 500 µg AAT-P loaded on 200 µl Alpha1 Antitrypsin Select beads, incubated over night at 4°C with lysate of LPS-primed U937 cells (25 mM HEPES pH 7.2, 1 mM CaCl2, 1 mM MgCl2, 1% Triton-X100); washed, eluted, Western blotting for CD36 and AAT; control without AAT-P; only the target purified.

In the case of “CD36 (from UniProt P16671 1-472) (receptor)”, the binding result is given as “binds”.
